Results published in the supplement of paper PMC9233669.
Variants at the background level are over-represented here.

Tests used:
biotinyl-Leu-oxazolone = test: self-aminoacylation, catalytic enhancement (BLO) (fold over background); higher = more active; k-Seq, kA / k0A0; sequences stand for … in GGGAAUGGAUCCACAUCUACGAAUUC…UUCACUGCAGACUUGACGAAGCUG
How it was run: (§1)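 Mutagenized RNA pools with a 21-nt variable region (0.43 μM) reacted with each biotinyl-aminoacyl-oxazolone at 2–1250 μM. Reactions ran in 50 μL HEPES/NaCl/KCl/MgCl2/CaCl2 buffer with 5% acetonitrile, pH 6.9–7.0, for 90 minutes at room temperature. Streptavidin-captured RNA was quantified by triplicate qPCR and Illumina sequencing, and per-sequence fraction reacted was fit to a pseudo-first-order model with 1000 bootstraps. Catalytic enhancement is median kA divided by the uncatalyzed rate, the low-activity peak of a bimodal Gaussian fit.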

biotinyl-Ile-oxazolone = test: self-aminoacylation, catalytic enhancement (BIO) (fold over background); higher = more active; k-Seq, kA / k0A0; sequences stand for … in GGGAAUGGAUCCACAUCUACGAAUUC…UUCACUGCAGACUUGACGAAGCUG
How it was run: as §1

biotinyl-Met-oxazolone = test: self-aminoacylation, catalytic enhancement (BMO) (fold over background); higher = more active; k-Seq, kA / k0A0; sequences stand for … in GGGAAUGGAUCCACAUCUACGAAUUC…UUCACUGCAGACUUGACGAAGCUG
How it was run: as §1

biotinyl-Val-oxazolone = test: self-aminoacylation, catalytic enhancement (BVO) (fold over background); higher = more active; k-Seq, kA / k0A0; sequences stand for … in GGGAAUGGAUCCACAUCUACGAAUUC…UUCACUGCAGACUUGACGAAGCUG
How it was run: as §1

Row | Sequence | self-aminoacylation (biotinyl-Leu-oxazolone) | self-aminoacylation (biotinyl-Ile-oxazolone) | self-aminoacylation (biotinyl-Met-oxazolone) | self-aminoacylation (biotinyl-Val-oxazolone)
1 | AAAUCUGCUAAUAGUCGCAAG [Fam3.1 aminoacylation ribozyme variant] | 1.82 | – | – | –
2 | AACUUUGCUAAUAGUCGCACG [Fam3.1 aminoacylation ribozyme variant] | 2.15 | 2.49 | 1.82 | 2.05
3 | AAGCUGGCUAAUAGUCGCAAG [Fam3.1 aminoacylation ribozyme variant] | – | 1.74 | 1.64 | 1.46
4 | AAGCUUGAUAAUAGUCGCAAG [Fam3.1 aminoacylation ribozyme variant] | 1.2 | 1.41 | 1.73 | 1.6
5 | AAGCUUGGUAAUAGUCGCAAG [Fam3.1 aminoacylation ribozyme variant] | – | 1.99 | – | 1.85
6 | AAGGUUGCUAAUAGUCGCAGG [Fam3.1 aminoacylation ribozyme variant] | 1.85 | 1.57 | 1.79 | 1.47
7 | AAGUUCGCUAAUAGUCGUAAG [Fam3.1 aminoacylation ribozyme variant] | 1.07 | 1.14 | 1.14 | 1.1
8 | AAGUUGGCUAAUAGUCGAAAG [Fam3.1 aminoacylation ribozyme variant] | 1.46 | 1.33 | 1.57 | 1.27
9 | AAGUUUGCUAAGAGUCGCAUG [Fam3.1 aminoacylation ribozyme variant] | – | 0.902 | – | 1.1
10 | AAGUUUGCUAAUAGUCCAAAG [Fam3.1 aminoacylation ribozyme variant] | – | 1.21 | – | 1.18
11 | AAGUUUGGUAAUAGGCGCAAG [Fam3.1 aminoacylation ribozyme variant] | – | 0.692 | – | –
12 | AAUACCCUGGUCAUCCAGUGA [Fam2.1 aminoacylation ribozyme variant] | – | 3.01 | 5.25 | 2.88
13 | AAUACCCUGGUCCUCGAGUGA [Fam2.1 aminoacylation ribozyme variant] | – | 1.86 | – | 1.89
14 | AAUUUUGCUAAAAGUCGCAAG [Fam3.1 aminoacylation ribozyme variant] | – | – | 1.97 | 1.72
15 | ACUACCCUCGUCAUCGAGUGA [Fam2.1 aminoacylation ribozyme variant] | – | 1.85 | – | –
16 | AGUACCCUGGUCAACGAGUGA [Fam2.1 aminoacylation ribozyme variant] | – | 2.91 | – | –
17 | AUACACCUAGGUCAUCGAGUG [Fam2.2 aminoacylation ribozyme variant] | – | 1.88 | – | 1.94
18 | AUACACCUAGGUCAUCGGGCG [Fam2.2 aminoacylation ribozyme variant] | – | 1.96 | – | –
19 | AUCUCCCUGGUCAUCGAGUGA [Fam2.1 aminoacylation ribozyme variant] | – | 4.57 | – | 4.7
20 | AUUAACCUAGGUCAUCUGGUG [Fam2.2 aminoacylation ribozyme variant] | – | 1.84 | – | 1.71

Row | Sequence | self-aminoacylation (biotinyl-Leu-oxazolone) | self-aminoacylation (biotinyl-Ile-oxazolone) | self-aminoacylation (biotinyl-Met-oxazolone) | self-aminoacylation (biotinyl-Val-oxazolone)
21 | AUUAACCUAGGUCAUGGGGUG [Fam2.2 aminoacylation ribozyme variant] | – | 2.28 | 3.3 | 2.38
22 | AUUAACCUGGUCCUCGAGUGA [Fam2.1 aminoacylation ribozyme variant] | – | – | – | 1.93
23 | AUUACACUUGUCAUCGAGUGA [Fam2.1 aminoacylation ribozyme variant] | – | 2.51 | 4.21 | 2.59
24 | AUUACCAUGCUCAUCGAGUGA [Fam2.1 aminoacylation ribozyme variant] | – | 1.62 | – | 1.71
25 | AUUACCCUGCUCAUCGUGUGA [Fam2.1 aminoacylation ribozyme variant] | – | 1.36 | – | 1.64
26 | AUUACCCUGGACUUCGAGUGA [Fam2.1 aminoacylation ribozyme variant] | – | 1.85 | – | –
27 | AUUACCCUGGGCAUCGAGUGU [Fam2.1 aminoacylation ribozyme variant] | 1.63 | 1.21 | – | 1.46
28 | AUUACCCUGGGGAUCGAGUGA [Fam2.1 aminoacylation ribozyme variant] | – | 1.8 | – | 1.78
29 | AUUACCCUGGUCAACGAGUGU [Fam2.1 aminoacylation ribozyme variant] | – | 1.84 | – | 1.85
30 | AUUACCCUGGUCAUCGAGCCA [Fam2.1 aminoacylation ribozyme variant] | – | – | – | 1.87
31 | AUUACCCUGGUCAUCGCUUGA [Fam2.1 aminoacylation ribozyme variant] | 1.92 | – | – | 1.56
32 | AUUACCCUGGUCCUCGUGUGA [Fam2.1 aminoacylation ribozyme variant] | – | 1.29 | – | 1.76
33 | AUUAGCCUGGUCAUCGAGUGG [Fam2.1 aminoacylation ribozyme variant] | – | 1.73 | – | 1.75
34 | AUUCACCAAGGUCAUAGGGUG [Fam2.2 aminoacylation ribozyme variant] | – | 1.96 | – | 1.79
35 | AUUCACCUAAGUCAUUGGGUG [Fam2.2 aminoacylation ribozyme variant] | – | – | – | 1.99
36 | AUUCACCUACGUCAUCAGGUG [Fam2.2 aminoacylation ribozyme variant] | – | 1.48 | 2.73 | 1.72
37 | AUUCACCUAGGUCAACUGGUG [Fam2.2 aminoacylation ribozyme variant] | – | 1.68 | – | 1.83
38 | AUUCACCUAGGUCAUCGGGAC [Fam2.2 aminoacylation ribozyme variant] | – | 1.85 | – | 1.55
39 | AUUUACCUGGUCAUCGAGUGA [Fam2.1 aminoacylation ribozyme variant] | – | 4 | – | 4.29
40 | CAACUUCAAACAAUCGGGCUG [Fam1A.1 aminoacylation ribozyme variant] | – | – | 1.87 | –

Row | Sequence | self-aminoacylation (biotinyl-Leu-oxazolone) | self-aminoacylation (biotinyl-Ile-oxazolone) | self-aminoacylation (biotinyl-Met-oxazolone) | self-aminoacylation (biotinyl-Val-oxazolone)
41 | CAGUCUGCUAAUAGUCGCAAG [Fam3.1 aminoacylation ribozyme variant] | 2 | – | – | 1.9
42 | CAGUUUGCUAAUAGUCGCGAG [Fam3.1 aminoacylation ribozyme variant] | – | – | 1.63 | –
43 | CCACACUGCAAGGAAUCGGUC [Fam1B.1 aminoacylation ribozyme variant] | – | 1.39 | – | 1.32
44 | CCACACUUCAUGCAAUGGGUC [Fam1B.1 aminoacylation ribozyme variant] | – | 0.751 | – | –
45 | CCCCACUCCAAGCAAUCGGUC [Fam1B.1 aminoacylation ribozyme variant] | 1.68 | 1.71 | 1.84 | –
46 | CCCCACUUCGAGCAAUCGGUC [Fam1B.1 aminoacylation ribozyme variant] | – | – | 1.7 | –
47 | CCCCUCUUCAAGCAAUCGGUC [Fam1B.1 aminoacylation ribozyme variant] | – | 1.47 | 1.57 | 1.9
48 | CCGCACUUCAAACAAUCGGUC [Fam1B.1 aminoacylation ribozyme variant] | – | 1.63 | 1.94 | 1.97
49 | CGACUUCAAACAAUCGGUCUG [Fam1A.1 aminoacylation ribozyme variant] | – | 1.48 | 1.71 | 1.53
50 | CUACUUCAAAUAAUCGGUCAG [Fam1A.1 aminoacylation ribozyme variant] | – | 0.755 | – | –
51 | CUACUUCAACGAAUCGGUCUG [Fam1A.1 aminoacylation ribozyme variant] | – | 0.847 | – | 0.833
52 | CUACUUCACACAAUCGGUCUG [Fam1A.1 aminoacylation ribozyme variant] | – | 0.775 | 0.685 | 0.811
53 | CUGUUUCAAACAAUCGGUCUG [Fam1A.1 aminoacylation ribozyme variant] | – | 1.24 | 1.45 | 1.2
54 | GAGUUUGCUAAAAGUCGCAAG [Fam3.1 aminoacylation ribozyme variant] | 1.6 | 1.37 | 1.96 | –
55 | GAGUUUGCUAAUAGUCGCAAU [Fam3.1 aminoacylation ribozyme variant] | 1.57 | – | 1.64 | 1.93
56 | GCACACUUCAAGCAACCGGUC [Fam1B.1 aminoacylation ribozyme variant] | – | – | 1.9 | –
57 | GGUCACCUAGGUCAUCGGGUG [Fam2.2 aminoacylation ribozyme variant] | – | 4.07 | 4.37 | 5.01
58 | UAGUUUGCUAAUAGUCGCGAG [Fam3.1 aminoacylation ribozyme variant] | – | 1.81 | 1.44 | 1.67
59 | UUUACCCUGGUCAUCGAGGGA [Fam2.1 aminoacylation ribozyme variant] | 1.84 | 1.85 | 1.86 | –
